Chains of the proteins cited; added tags and fusions are not shown. Lines headed by an entry give the natural chain unless they say otherwise; changes in a name come on top.
UniProt P61517: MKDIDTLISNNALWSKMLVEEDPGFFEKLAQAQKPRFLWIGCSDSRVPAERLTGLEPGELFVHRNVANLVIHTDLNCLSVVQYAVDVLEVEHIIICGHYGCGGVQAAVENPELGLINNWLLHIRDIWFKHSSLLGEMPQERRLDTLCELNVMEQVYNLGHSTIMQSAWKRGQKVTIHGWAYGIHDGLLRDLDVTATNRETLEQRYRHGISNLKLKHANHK

In publication PMC7312386, “The Effect of Substituted Benzene-Sulfonamides and Clinically Licensed Drugs on the Catalytic Activity of CynT2, a Carbonic Anhydrase Crucial for Escherichia coli Life Cycle” (International Journal of Molecular Sciences, 2020):

Target: T1, CynT2 (Escherichia coli, UniProt P61517)
T1 construct: gene can; oligomer not determined (dimer or tetramer stated for bacterial beta-CAs in general)
Assay: stopped-flow CO2 hydrase assay, phenol red
Assay type: biochemical

Q: CCN[C@H]1C[C@H](C)S(=O)(=O)c2sc(S(N)(=O)=O)cc21 [DZA, Dorzolamide] was tested. Which Ki did it give?
A: Its Ki is 629 nM.
